Laboratory results taken from PubChem BioAssay AID445 (National Center for Advancing Translational Sciences (NCATS), 2006).
“And” between values parts separate entries of the source, which are not always exact repeats. Equal values may be shown once. Some of the results follow. The main result of the screen is listed elsewhere. These columns were measured beside it and carry no call. The list favours compounds with an active or inconclusive main result. Words in brackets tell the shape of the fitted curve; partial curves, single points and poor fits give uncertain potencies.

Experiment: IkB Signaling
Settings: ABC-DLBCL IkBa-CBG/CBR dual luciferase ratio (green luciferase fused to IkBa over red control in OCI-Ly3 lymphoma cells), 4 h; measured here: control luc red channel unless noted
In short: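 Luminescence ratio of IκBα-fused green versus native red beetle luciferase in OCI-Ly3 cells, 4 h post-doxycycline with compound; red signal alone, scaled from basal (0%) to zero light (-100%), flagged nonspecific or cytotoxic effects.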
With O=C1NC2(CCCc3ccccc32)C(=O)N1Cc1nnc(-c2ccccc2Br)o1 (stereo not given) the AC50 was 31.6 µM [falling, single point].
With COc1ccc(C2CC(=O)N(CC(=O)Nc3ccc(C)c(Cl)c3)c3ccccc3S2)cc1OC (stereo not given) the AC50 was 0.158 µM [falling, full curve].
With COc1ccc(-c2nc(SCC(=O)NC3CCCC3)c(-c3ccc(C)cc3)[nH]2)cc1OC the AC50 was 15.8 µM [falling, partial curve].
For COc1ccc(N(Cc2cccs2)C(=O)Nc2cccc(Cl)c2)cc1, the AC50 was 31.6 µM [falling, partial curve, poor fit].
For CCOC(=O)C1CCCN(S(=O)(=O)c2ccc3c(c2)oc(=O)n3C)C1 (stereo not given), the AC50 was 3.98 µM [falling, partial curve, poor fit].
With Cc1noc(C)c1CSc1nc2ccccc2nc1NS(=O)(=O)c1ccc(Cl)cc1 the AC50 was 15.8 µM [falling, partial curve].
In the case of COc1ccc(-c2cn3c(n2)sc2cc(C(=O)NCc4cccc(F)c4)ccc23)cc1, the AC50 is reported as 25.1 µM [falling, single point].
For CCCc1cnc2c(c1SCc1cccc(F)c1)c(=O)n(C)c(=O)n2C, the AC50 was 39.8 µM [falling, partial curve].
With CCCc1noc(-c2ccc(NCc3ccc(C)cc3)c([N+](=O)[O-])c2)n1 the AC50 was 0.316 µM [rising, full curve].
With Cc1oc2c(cc(NS(=O)(=O)c3ccc(Cl)cc3)c3ccccc32)c1C(=O)OCc1ccccc1 the AC50 was 20 µM [falling, single point].
For COc1ccc(C2C=C(c3ccc(Br)s3)Nc3ncnn32)cc1OC (stereo not given), the AC50 was 15.8 µM [falling, partial curve].
In the case of O=S(=O)(Nc1cccc(-c2cn3ccsc3n2)c1)c1ccc(F)cc1, the AC50 is reported as 31.6 µM [falling, partial curve].
With CCc1cccc(C)c1Nc1c(-c2cccs2)nc2nc(C)cc(C)n12 the AC50 was 39.8 µM [falling, single point].
In the case of O=C(CSc1nc2ccccc2nc1Cc1ccccc1F)Nc1cccc(C(F)(F)F)c1, the AC50 is reported as 5.01 µM [falling, full curve].
With CCC(=O)Nc1ccc(CC)cc1-c1nc2ccccc2n(CC(=O)Nc2ccccc2C)c1=O the AC50 was 12.6 µM [falling, partial curve].
With COc1ccc(-c2onc(C)c2C)cc1S(=O)(=O)Nc1cc(Cl)ccc1C the AC50 was 0.158 µM [rising, full curve].
In the case of COc1ccc(-c2cc3nc(C)c(CCC(=O)N4CCN(c5ccccc5F)CC4)c(C)n3n2)c(OC)c1, the AC50 is reported as 0.794 µM [falling, full curve].
For COC(=O)C1=C(C)NC(=O)NC1c1cn(-c2ccccc2)nc1-c1cccs1 (stereo not given), the AC50 was 20 µM [falling, partial curve].
With COc1ccccc1-c1cc(C(F)(F)F)nc(S(=O)(=O)CCCC(=O)Nc2cc(C)on2)n1 the AC50 was 1.58 µM [falling, full curve, poor fit].
For COc1cc2c(cc1OC)C(COc1ccc(F)cc1)N(C(=O)Cc1ccccc1)CC2 (stereo not given), the AC50 was 39.8 µM [falling, single point].
For CCOc1ccccc1C(=O)N1CC(=O)Nc2ccc(C)cc2C1c1ccccc1 (stereo not given), the AC50 was 31.6 µM [falling, single point].
With Cc1nn2c(=O)cc(COc3ccc(/C=C(\C#N)C(=O)Nc4ccccc4)cc3Cl)nc2s1 the AC50 was 7.94 µM [rising, partial curve].
In the case of O=C(OCc1ccccc1Cl)c1ccc(-c2nnn(Cc3ccc(F)cc3)n2)cc1, the AC50 is reported as 3.16 µM [rising, full curve].
For Brc1ccc2c(c1)NC(c1cccnc1)=NC(c1ccccc1)=N2, the AC50 was 3.16 µM [rising, partial curve].
For O=C(c1cccs1)N1CCC(c2ccccc2)C1 (stereo not given), the AC50 was 3.16 µM [falling, partial curve].
For CCOC(=O)CCNC(=O)Nc1ccc2nc(C)n(Cc3cccc(Cl)c3)c(=O)c2c1, the AC50 was 31.6 µM [falling, single point].
With COc1cc(-c2noc(-c3ccccc3C(=O)NCc3ccco3)n2)cc(OC)c1OC the AC50 was 7.94 µM [falling, partial curve].
In the case of COc1cccc2c1C(=O)c1c(O)c3c(c(O)c1C2=O)C[C@@](O)(C(C)=O)C[C@@H]3O[C@H]1C[C@H](N)[C@H](O)[C@H](C)O1, the AC50 is reported as 31.6 µM [falling, partial curve] and 501 nM [falling, full curve].
With COc1cc(-c2nc3oc4ccccc4c(=O)c3c(=O)n2Cc2ccco2)cc(OC)c1OC the AC50 was 6.31 µM [falling, partial curve].
In the case of COC(=O)c1ccc(CN2C(=O)NC3(CCCCC3C)C2=O)o1 (stereo not given), the AC50 is reported as 3.16 µM [falling, partial curve].
With O=S(=O)(NCC(c1ccccc1)N1CCc2ccccc21)c1ccccc1 (stereo not given) the AC50 was 12.6 µM [falling, partial curve].
In the case of O=c1c2ccccc2n(Cc2c(F)cccc2Cl)c(=O)n1Cc1ccccc1, the AC50 is reported as 6.31 µM [falling, full curve].
In the case of CCn1c(=O)cc(OCC(=O)N2CCN(c3cccc(Cl)c3)CC2)c2ccccc21, the AC50 is reported as 12.6 µM [falling, partial curve].
In the case of O=C(NCc1cccs1)C1CCN(c2ccc(S(=O)(=O)N3CCOCC3)cc2Cl)CC1, the AC50 is reported as 25.1 µM [falling, single point].
For COc1cc(C(=O)N2CCC(c3nc4ccccc4s3)CC2)cc(OC)c1OC, the AC50 was 39.8 µM [falling, single point].
For CCc1ccc(-c2cc(C)no2)cc1S(=O)(=O)Nc1cc(OC)c(OC)c(OC)c1, the AC50 was 39.8 µM [falling, single point].
For Cc1ccc(S(=O)(=O)N2CCN(Cc3ccc4c(c3)OCO4)CC2)cc1, the AC50 was 10 µM [falling, partial curve].
For COc1ccc(C2=C(C)C(=NCc3ccc(OC(C)C)cc3)NS2(=O)=O)cc1, the AC50 was 15.8 µM [falling, partial curve].
With Cc1ccc2c(c1)sc1nc(=O)n(-c3ccc(Cl)c(Cl)c3)c(=O)n12 the AC50 was 20 µM [falling, single point].
With Cc1cccc(N2CCN(c3ccc(NC(=O)c4ccccc4)cc3C(=O)O)CC2C)c1 (stereo not given) the AC50 was 1.26 µM [rising, full curve].
For COc1ccc(-c2noc(CSc3nc(N)cc(=O)[nH]3)n2)cc1, the AC50 was 1.58 µM [rising, partial curve].
For N#Cc1ccc(NC(=O)N2CCC(c3nc4c(nnn4Cc4cccc(Cl)c4)c(=O)[nH]3)CC2)cc1, the AC50 was 25.1 µM [falling, partial curve].
In the case of COc1ccccc1C(=O)Nc1onc2c1CCCC2, the AC50 is reported as 3.98 µM [rising, full curve].
With CCOc1ccc(C(=O)c2cn(CC(=O)Nc3ccc(F)c(F)c3)c3cc4c(cc3c2=O)OCCO4)cc1 the AC50 was 2 µM [falling, full curve].
For COc1cccc(NC(=O)CCc2nc(-c3cccs3)no2)c1, the AC50 was 39.8 µM [falling, single point].
